Experimental data reported in PMC13496012.
These are yes or no findings as the source states them, for the method shown. Binding seen in cells or lysates may run through a third protein. Some entries that bind do so weakly or less than the wild type. Sequences can lack the tags named with a protein.

Protein sequences, listed by entry. Tags and fused reporters are not part of them.
UniProt P05556: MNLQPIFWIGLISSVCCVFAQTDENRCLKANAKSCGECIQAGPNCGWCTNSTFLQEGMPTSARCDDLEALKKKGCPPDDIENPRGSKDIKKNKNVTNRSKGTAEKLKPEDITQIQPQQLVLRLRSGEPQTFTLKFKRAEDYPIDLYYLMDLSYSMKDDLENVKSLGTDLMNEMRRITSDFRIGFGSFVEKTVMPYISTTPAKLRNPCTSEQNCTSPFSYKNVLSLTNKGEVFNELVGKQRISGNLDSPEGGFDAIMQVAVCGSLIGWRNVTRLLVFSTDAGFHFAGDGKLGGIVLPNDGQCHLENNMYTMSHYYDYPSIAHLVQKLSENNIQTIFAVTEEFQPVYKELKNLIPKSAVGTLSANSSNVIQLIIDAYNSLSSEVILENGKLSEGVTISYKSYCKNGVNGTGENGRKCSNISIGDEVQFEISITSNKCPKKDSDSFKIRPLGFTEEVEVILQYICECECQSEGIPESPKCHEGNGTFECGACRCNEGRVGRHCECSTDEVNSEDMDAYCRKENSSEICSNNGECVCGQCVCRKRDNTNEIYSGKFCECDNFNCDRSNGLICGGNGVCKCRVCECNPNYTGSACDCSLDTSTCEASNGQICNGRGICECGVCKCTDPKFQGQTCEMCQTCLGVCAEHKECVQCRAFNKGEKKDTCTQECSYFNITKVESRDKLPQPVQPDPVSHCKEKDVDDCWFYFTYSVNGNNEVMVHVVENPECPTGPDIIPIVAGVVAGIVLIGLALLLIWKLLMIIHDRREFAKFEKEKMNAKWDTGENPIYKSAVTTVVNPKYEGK

How the values were obtained:
[1] = molecular target: β1-integrin subunit (human (endogenous in TIME cells)) (UniProt P05556); experiment: proximity ligation; whole cell PLA (Duolink) in fixed, permeabilized TIME cells transfected with Halo-CD36; rabbit anti-HaloTag with mouse anti-β1-integrin K20 (total) or 12G10 (active); mitofilin antibody as negative control; spinning disk confocal; read-out percent of cell area occupied by PLA puncta
[2] = molecular target: β1-integrin subunit (human (endogenous in TIME cells)) (UniProt P05556); experiment: proximity ligation; cell surface PLA (Duolink) in fixed TIME cells transfected with Halo-CD36; anti-β1-integrin K20 applied before permeabilization, anti-HaloTag after; TIRFM; read-out ratio of PLA detection density in CD36-expressing to non-expressing cells

B1: HaloTag-fused CD36 G12V (Halo-CD36^G12V) (receptor, UniProt P16671 1-472)
chain: MGCDRNCGLIAVAVIGAVLAVFGGILMPVGDLLIQKTIKKQVVLEEGTIAFKNWVKTGTEVYRQFWIFDVQNPQEVMMNSSNIQVKQRGPYTYRVRFLAKENVTQDAEDNTVSFLQPNGAIFEPSLSVGTEADNFTVLNLAVAAASHIYQNQFVQMILNSLINKSKSSMFQVRTLRELLWGYRDPFLSLVPYPVTTTVGLFYPYNNTADGVYKVFNGKDNISKVAIIDTYKGKRNLSYWESHCDMINGTDAASFPPFVEKSQVLQFFSSDICRSIYAVFESDVNLKGIPVYRFVLPSKAFASPVENPDNYCFCTEKIISKNCTSYGVLDISKCKEGRPVYISLPHFLYASPDVSEPIDGLNPNEEEHRTYLDIEPITGFTLQFAKRLQVNLLVKPSEKIQVLKNLKRNYIVPILWLNETGTIGDEKANMFRSQVTGKINLLGLIEMILLSVGVVMFVAFMISYCACRSKTIK
binding [1]: binds | binding [2]: binds
